Several values for one entry are separate records, joined by “and”; a condition that tells them apart may be missing. Identical values can stand only once.
Each compound was assayed on HeLa cells (assay: Fluorescence microscopy of Cy5-conjugated compounds). Settings: individual technical replicates.
Format: cell-based, human
Method: Cells were seeded into 96-well, black, clear-bottom, TC-treated plates, in DMEM supplemented with 10% FBS 24 h prior at a density where wells were ~80% confluent at the time of the experiment. Medium was removed and cells were then stained with 50 µL mixture containing Cy5-labeled compound (6 µM) in Kreb’s ringer solution HEPES buffered pH 7.2 (KRB), for 1 h at 37 °C. Then, 50 µL Hoechst 33342 (8 µM) and Mitotracker Green FM (0.1 µM) in KRB was added directly to wells containing cells and incubated for 15 min at 37 °C. Medium was removed and cells were washed twice with 100 µL KRB. Cells were then kept adherent to the wells in 100 µL KRB for imaging. Fluorescence microscopy was conducted on an Opera Phenix Plus High-Content Screening System, using Alexa 488, Alexa 647, and Hoescht 33342 channels. Images were analyzed using Harmony v.4.9.
`C[N+]1=C(C=CC=CC=C2N(CCCCCC(=O)NCCNC(=O)C3CCNC(=O)C=CC(=O)N4CCCC(Cc5ccccc5)(C4)C(=O)NC(Cc4ccc(-c5ccc(CC(C(=O)O)C(=O)O)cc5)cc4)C(=O)NCc4ccccc4CC(=O)N3)c3ccccc3C2(C)C)C(C)(C)c2ccccc21` (stereo not shown) [*B52-Cy5] was tested, and the “Mitotracker Green and Cy5 Spots % Overlap (8g)” value was 17.82% and 18.68% and 22.81%. For `C[N+]1=C(C=CC=CC=C2N(CCCCCC(=O)NCCNC(=O)C3CCNC(=O)C=CC(=O)N4CCCC(Cc5ccccc5)(C4)C(=O)NC(Cc4ccc(-c5ccc(C(CC(=O)O)CC(=O)O)cc5)cc4)C(=O)NCc4ccccc4CC(=O)N3)c3ccccc3C2(C)C)C(C)(C)c2ccccc21` (stereo not shown) [*B53-Cy5], the “Mitotracker Green and Cy5 Spots % Overlap (8g)” value was 22.73% and 23.26% and 27.77%. For `C[N+]1=C(C=CC=CC=C2N(CCCCCC(=O)NCCNC(=O)C3CCNC(=O)C=CC(=O)N4CCCC(Cc5ccccc5)(C4)C(=O)NC(Cc4ccc(-c5ccc(CC(C(=O)O)C(=O)O)cc5)cc4)C(=O)NCc4ccccc4CC(=O)N3)c3ccccc3C2(C)C)C(C)(C)c2ccccc21` (stereo not shown) [Compound B52-Cy5], the “Mitotracker Green and Cy5 Spots % Overlap (8g)” value was 40.87% and 40.29% and 39.94%. For `CCOC(=O)C(Cc1ccc(-c2ccc(CC3NC(=O)C4(Cc5ccccc5)CCCN(C4)C(=O)C=CC(=O)NCCC(C(=O)NCCNC(=O)CCCCCN4C(=CC=CC=CC5=[N+](C)c6ccccc6C5(C)C)C(C)(C)c5ccccc54)NC(=O)Cc4ccccc4CNC3=O)cc2)cc1)C(=O)OCC` (stereo not shown) [Compound B52-Et-Cy5], the “Mitotracker Green and Cy5 Spots % Overlap (8g)” value was 85.8% and 85.56% and 86.46%. For `C[N+]1=C(C=CC=CC=C2N(CCCCCC(=O)NCCNC(=O)C3CCNC(=O)C=CC(=O)N4CCCC(Cc5ccccc5)(C4)C(=O)NC(Cc4ccc(-c5ccc(C(CC(=O)O)CC(=O)O)cc5)cc4)C(=O)NCc4ccccc4CC(=O)N3)c3ccccc3C2(C)C)C(C)(C)c2ccccc21` (stereo not shown) [Compound B53-Cy5], the “Mitotracker Green and Cy5 Spots % Overlap (8g)” value was 21.44% and 28.05% and 25.24%. For `CCOC(=O)CC(CC(=O)OCC)c1ccc(-c2ccc(CC3NC(=O)C4(Cc5ccccc5)CCCN(C4)C(=O)C=CC(=O)NCCC(C(=O)NCCNC(=O)CCCCCN4C(=CC=CC=CC5=[N+](C)c6ccccc6C5(C)C)C(C)(C)c5ccccc54)NC(=O)Cc4ccccc4CNC3=O)cc2)cc1` (stereo not shown) [Compound B53-Et-Cy5], the “Mitotracker Green and Cy5 Spots % Overlap (8g)” value was 86.25% and 86.5% and 84.76%. For `CC(=O)NCCNC(=O)CCCCCN1\C(=C/C=C/C=C/C2=[N+](C)c3ccccc3C2(C)C)C(C)(C)c2ccccc21` [Cy5-enAc, reference compound], the “Mitotracker Green and Cy5 Spots % Overlap (8g)” value was 73.41% and 77.45% and 72.71%.

Reference: PMC9596378, “Discovery and molecular basis of subtype-selective cyclophilin inhibitors” (Nature Chemical Biology, 2022)
